In the supplement of paper PMC6078165:
± gives the standard deviation of the averaged measurements. The reference is the same well before dosing, and untreated signal decays as well.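 Fibroblast labels denote human fibroblasts, mainly primary ones from uterus (C12385, HUF), lung (H6013), bone (Hs27A), adrenal (HADF) and skin (WS1), plus mammary HMF and breast cancer-associated Hs343T. Cancer cells are basal-like or mesenchymal-like triple-negative breast cancer lines. A hit is a response shift exceeding 3x replicate standard deviation. The tissue of the other fibroblasts is not given here.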

Test system: BT20
Assay: relative JC-1 red fluorescence (viability) vs pre-drug, coculture with fibroblast (fraction); higher = more viable cancer cells
Details: 10 µM
Experimental: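 JC-1 labelled TNBC cells cocultured 1:1 (1,500 cells each) with CellTrace Violet stained primary or stromal fibroblasts in 384-well plates in FluoroBrite medium, treated with one of 42 anticancer drugs at 0.1, 1, 10 or 100 uM. JC-1 red fluorescence (mitochondrial integrity in cancer cells only) was read by plate reader every 8 h for 72 h. Values are normalised to each well's pre-drug value. The stock of one drug was tenfold lower, so its dose labels may be too high.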

N.N.[Cl][Pt][Cl] [Cisplatin]
relative JC-1 red fluorescence
Details	8 h	16 h	24 h	32 h	40 h	48 h	56 h	64 h	72 h
coculture fibroblast: C12385	0.884 ± 0.02	0.8025 ± 0.0018	0.729 ± 0.042	0.634 ± 0.059	0.543 ± 0.079	0.504 ± 0.081	0.479 ± 0.081	0.475 ± 0.077	0.461 ± 0.079
coculture fibroblast: H6013	0.947 ± 0.042	0.888 ± 0.086	0.839 ± 0.15	0.745 ± 0.17	0.703 ± 0.17	0.684 ± 0.16	0.707 ± 0.17	0.694 ± 0.17	0.682 ± 0.17
coculture fibroblast: H6019	0.861 ± 0.035	0.823 ± 0.071	0.787 ± 0.1	0.678 ± 0.11	0.604 ± 0.11	0.592 ± 0.12	0.563 ± 0.11	0.544 ± 0.1	0.536 ± 0.099
coculture fibroblast: H6076	0.866 ± 0.13	0.864 ± 0.043	0.719 ± 0.012	0.677 ± 0.043	0.658 ± 0.052	0.644 ± 0.086	0.651 ± 0.091	0.657 ± 0.1	0.649 ± 0.097
coculture fibroblast: H6231	0.783 ± 0.11	0.8488 ± 0.003	0.692 ± 0.068	0.604 ± 0.11	0.554 ± 0.12	0.506 ± 0.14	0.484 ± 0.15	0.468 ± 0.15	0.454 ± 0.16
coculture fibroblast: HADF	0.86 ± 0.18	0.888 ± 0.014	0.7745 ± 0.00046	0.655 ± 0.0094	0.631 ± 0.014	0.596 ± 0.023	0.594 ± 0.029	0.594 ± 0.03	0.578 ± 0.028
coculture fibroblast: HCFa	0.935 ± 0.055	0.868 ± 0.071	0.804 ± 0.062	0.687 ± 0.041	0.639 ± 0.022	0.608 ± 0.035	0.603 ± 0.04	0.594 ± 0.024	0.571 ± 0.035
coculture fibroblast: HCPF	0.837 ± 0.17	0.887 ± 0.051	0.774 ± 0.053	0.699 ± 0.074	0.65 ± 0.069	0.571 ± 0.048	0.539 ± 0.03	0.533 ± 0.04	0.51 ± 0.039
coculture fibroblast: HHSteC	0.92 ± 0.051	0.853 ± 0.1	0.814 ± 0.17	0.704 ± 0.18	0.652 ± 0.18	0.619 ± 0.17	0.614 ± 0.18	0.611 ± 0.18	0.588 ± 0.17
coculture fibroblast: HMF	0.953 ± 0.023	0.882 ± 0.073	0.721 ± 0.12	0.646 ± 0.14	0.61 ± 0.15	0.575 ± 0.16	0.564 ± 0.17	0.547 ± 0.18	0.527 ± 0.18
coculture fibroblast: HPFa	0.944 ± 0.021	0.904 ± 0.045	0.876 ± 0.1	0.77 ± 0.12	0.746 ± 0.13	0.709 ± 0.17	0.72 ± 0.19	0.719 ± 0.2	0.699 ± 0.21
coculture fibroblast: HUF	0.882 ± 0.026	0.776 ± 0.079	0.693 ± 0.094	0.575 ± 0.088	0.521 ± 0.086	0.482 ± 0.089	0.479 ± 0.1	0.465 ± 0.11	0.462 ± 0.12
coculture fibroblast: Hs5	0.934 ± 0.084	0.873 ± 0.052	0.71 ± 0.052	0.624 ± 0.036	0.566 ± 0.082	0.522 ± 0.085	0.512 ± 0.092	0.493 ± 0.1	0.484 ± 0.1
coculture fibroblast: Hs27A	0.85 ± 0.039	0.811 ± 0.14	0.9933 ± 0.0062	0.898 ± 0.025	0.8524 ± 0.0023	0.85 ± 0.012	0.8571 ± 0.005	0.8552 ± 0.0053	0.814 ± 0.0089
coculture fibroblast: Hs343T	0.9841 ± 0.0079	0.831 ± 0.021	0.594 ± 0.041	0.487 ± 0.055	0.432 ± 0.065	0.384 ± 0.072	0.355 ± 0.064	0.346 ± 0.067	0.33 ± 0.068
coculture fibroblast: WS1	0.82847 ± 0.00057	0.737 ± 0.02	0.631 ± 0.015	0.496 ± 0.013	0.394 ± 0.041	0.352 ± 0.051	0.321 ± 0.053	0.302 ± 0.058	0.294 ± 0.06
